At least one structure is not confirmed: it was looked up by name or label, or the drawing left a doubt.
Legend:
human GTPCH = assay: Doxycycline regulation of GTPCH expression in GCHtet-off cells; type: cell-based; conditions: GCHtet-off cells incubated with 1 μg/ml of Dox
[1] = tested on: PI3K subunits (p110α and p85α), Akt; assay: Western blot of Akt phosphorylation and PI3K subunit expression in GCHtet-off cells; type: cell-based, murine
GCHtet-off cells = assay: Boyden chamber cell migration of GCHtet-off cells; type: cell-based, murine; conditions: serum free DMEM, 24 hours, 8 μM pore membrane

| Compound | GTPCH expression (human GTPCH) | Akt phosphorylation ([1]; 1 μg/ml of Dox for 48 hours) | PI3K expression ([1]; 1 μg/ml of Dox for 48 hours) | number of cells migrating (GCHtet-off cells; Dox 1 μg/ml) | Akt phosphorylation ([1]; 10 μM of Ly294002 for one hour) | PI3K expression ([1]; 10 μM of Ly294002 for one hour) | number of cells migrating (GCHtet-off cells; Ly294002 10 μM) |
| --- | --- | --- | --- | --- | --- | --- | --- |
| C[C@H]1c2cccc(O)c2C(=O)C2=C(O)[C@]3(O)C(=O)C(C(N)=O)=C(O)[C@@H](N(C)C)[C@@H]3[C@@H](O)[C@@H]21 [Dox, doxycycline] | switched off | reduced to basal levels | reduced to basal levels | significant reduction |  |  |  |
| O=c1cc(N2CCOCC2)oc2c(-c3ccccc3)cccc12 [Ly294002] |  |  |  |  | reduced to basal levels | reduced to basal levels | significant reduction |

— patent publication US20100297015A1, “CANCER BIOMARKER AND USES THEREOF” (priority 2007, published 2010)
